Results taken from paper PMC4845015.
No constants are given. Whether binding was seen depends on the method and setting. Binding seen in cells or lysates may run through a third protein. Some entries that bind do so weakly or less than the wild type.

Molecular target: T1, receptor-interacting serine/threonine kinase (RIPK) 1, mouse (mouse (endogenous in mouse brain)), Q60855
T1 chain: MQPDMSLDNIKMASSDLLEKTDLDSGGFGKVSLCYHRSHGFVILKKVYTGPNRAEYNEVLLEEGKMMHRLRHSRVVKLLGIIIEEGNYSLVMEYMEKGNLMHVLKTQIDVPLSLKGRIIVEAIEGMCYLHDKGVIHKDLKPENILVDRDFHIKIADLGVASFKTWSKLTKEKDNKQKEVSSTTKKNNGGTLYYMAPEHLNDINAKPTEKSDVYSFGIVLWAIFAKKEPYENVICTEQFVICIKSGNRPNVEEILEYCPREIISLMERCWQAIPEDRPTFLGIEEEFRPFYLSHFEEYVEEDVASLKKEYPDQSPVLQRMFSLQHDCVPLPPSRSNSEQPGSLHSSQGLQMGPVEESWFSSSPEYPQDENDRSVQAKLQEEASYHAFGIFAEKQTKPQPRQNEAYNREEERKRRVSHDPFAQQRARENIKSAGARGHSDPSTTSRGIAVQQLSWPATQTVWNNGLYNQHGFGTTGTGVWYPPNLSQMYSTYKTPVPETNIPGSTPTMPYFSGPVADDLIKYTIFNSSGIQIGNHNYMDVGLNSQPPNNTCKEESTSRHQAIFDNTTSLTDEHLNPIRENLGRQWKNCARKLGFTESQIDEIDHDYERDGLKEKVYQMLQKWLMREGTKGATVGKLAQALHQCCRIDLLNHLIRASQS
Assay: proximity ligation; Duolink In Situ PLA with anti-RIPK1 and anti-RIPK3 antibodies on paraffin-embedded brain sections (hippocampal area CA3) of 7-week-old Hrs flox/flox; CaMKIIα-cre mice
Conditions: remark: other sources report otherwise

binding: binds
B1: receptor-interacting serine/threonine kinase (RIPK) 3, mouse, Q9QZL0 1-486 (protein)
chain: MSSVKLWPTGASAVPLVSREELKKLEFVGKGGFGVVFRAHHRTWNHDVAVKIVNSKKISWEVKAMVNLRNENVLLLLGVTEDLQWDFVSGQALVTRFMENGSLAGLLQPECPRPWPLLCRLLQEVVLGMCYLHSLNPPLLHRDLKPSNILLDPELHAKLADFGLSTFQGGSQSGSGSGSGSRDSGGTLAYLDPELLFDVNLKASKASDVYSFGILVWAVLAGREAELVDKTSLIRETVCDRQSRPPLTELPPGSPETPGLEKLKELMIHCWGSQSENRPSFQDCEPKTNEVYNLVKDKVDAAVSEVKHYLSQHRSSGRNLSAREPSQRGTEMDCPRETMVSKMLDRLHLEEPSGPVPGKCPERQAQDTSVGPATPARTSSDPVAGTPQIPHTLPFRGTTPGPVFTETPGPHPQRNQGDGRHGTPWYPWTPPNPMTGPPALVFNNCSEVQIGNYNSLVAPPRTTASSSAKYDQAQFGRGRGWQPFHK
